From paper PMC10175487
Results are given in words; binding and its absence hold for the method and conditions named. Binding seen in cells or lysates may run through a third protein. Some results given as binding are weak or reduced against the parent protein; the word gives no strength.

Target: RIPK3 (mouse (endogenous in BMDMs)), Q9QZL0
Assay: co-IP; necrosome: immunoprecipitation of endogenous RIPK3 (anti-RIPK3, protein A/G agarose) from BMDMs treated with TNFα/SM-164/zVAD, vehicle or UDP-GlcA; 0.5% NP-40 lysis buffer, 4 °C; immunoblotting
Conditions: remark: other sources report otherwise

B1: RIPK1, Q60855 1-656 (protein)
chain: MQPDMSLDNIKMASSDLLEKTDLDSGGFGKVSLCYHRSHGFVILKKVYTGPNRAEYNEVLLEEGKMMHRLRHSRVVKLLGIIIEEGNYSLVMEYMEKGNLMHVLKTQIDVPLSLKGRIIVEAIEGMCYLHDKGVIHKDLKPENILVDRDFHIKIADLGVASFKTWSKLTKEKDNKQKEVSSTTKKNNGGTLYYMAPEHLNDINAKPTEKSDVYSFGIVLWAIFAKKEPYENVICTEQFVICIKSGNRPNVEEILEYCPREIISLMERCWQAIPEDRPTFLGIEEEFRPFYLSHFEEYVEEDVASLKKEYPDQSPVLQRMFSLQHDCVPLPPSRSNSEQPGSLHSSQGLQMGPVEESWFSSSPEYPQDENDRSVQAKLQEEASYHAFGIFAEKQTKPQPRQNEAYNREEERKRRVSHDPFAQQRARENIKSAGARGHSDPSTTSRGIAVQQLSWPATQTVWNNGLYNQHGFGTTGTGVWYPPNLSQMYSTYKTPVPETNIPGSTPTMPYFSGPVADDLIKYTIFNSSGIQIGNHNYMDVGLNSQPPNNTCKEESTSRHQAIFDNTTSLTDEHLNPIRENLGRQWKNCARKLGFTESQIDEIDHDYERDGLKEKVYQMLQKWLMREGTKGATVGKLAQALHQCCRIDLLNHLIRASQS
binding: binds
